Results taken from article PMC11894074.
These are yes or no findings as the source states them, for the method shown. In cells and extracts the contact can be indirect. Some entries that bind do so weakly or less than the wild type. For some of these results: Where a sequence is shown, tags or fusion partners need not be part of it. Values belong to the binder of their own block, whether it stands above or below them.

Key:
[1] = target: T1, HA-tagged CYP1B1 fragment containing amino acid residues 161-310 (UniProt Q16678); assay: co-IP; 293T cells co-transfected with FLAG-tagged AKR1C1 (wild type or truncation mutants) and HA-tagged CYP1B1 (wild type or truncation mutants); immunoprecipitation with Flag antibody (Fig. 5D) or HA antibody (Fig. 5E), western blot
T1 sequence: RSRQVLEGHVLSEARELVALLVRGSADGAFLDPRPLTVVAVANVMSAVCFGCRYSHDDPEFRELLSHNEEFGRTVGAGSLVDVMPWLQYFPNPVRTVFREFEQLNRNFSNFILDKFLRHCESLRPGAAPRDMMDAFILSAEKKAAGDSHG

[2] = target: T2, aldo-keto reductase family 1 member C1 (AKR1C1) (human (endogenous in QBC939)) (UniProt Q04828); assay: co-IP; endogenous proteins in QBC939 cell lysates; NP-40 lysis buffer, primary antibody or IgG control overnight at 4 °C, Protein A/G magnetic beads, PBST washes; immunoblot with antibodies against AKR1C1 and CYP1B1
T2 sequence: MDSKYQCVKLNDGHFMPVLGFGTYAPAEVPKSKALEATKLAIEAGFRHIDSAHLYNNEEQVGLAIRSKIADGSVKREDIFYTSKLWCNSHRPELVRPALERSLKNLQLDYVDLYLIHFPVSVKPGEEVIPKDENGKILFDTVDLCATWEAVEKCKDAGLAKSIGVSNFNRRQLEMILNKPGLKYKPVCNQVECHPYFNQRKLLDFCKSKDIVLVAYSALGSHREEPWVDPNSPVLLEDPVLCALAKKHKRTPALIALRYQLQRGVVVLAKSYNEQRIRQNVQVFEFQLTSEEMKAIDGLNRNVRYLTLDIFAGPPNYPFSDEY

[3] = target: T3, wildtype FLAG-tagged AKR1C1 (human) (UniProt Q04828); assay: co-IP; 293T cells co-transfected with FLAG-tagged AKR1C1 (wild type or truncation mutants) and HA-tagged CYP1B1 (wild type or truncation mutants); immunoprecipitation with Flag antibody (Fig. 5D) or HA antibody (Fig. 5E), western blot
T3 sequence: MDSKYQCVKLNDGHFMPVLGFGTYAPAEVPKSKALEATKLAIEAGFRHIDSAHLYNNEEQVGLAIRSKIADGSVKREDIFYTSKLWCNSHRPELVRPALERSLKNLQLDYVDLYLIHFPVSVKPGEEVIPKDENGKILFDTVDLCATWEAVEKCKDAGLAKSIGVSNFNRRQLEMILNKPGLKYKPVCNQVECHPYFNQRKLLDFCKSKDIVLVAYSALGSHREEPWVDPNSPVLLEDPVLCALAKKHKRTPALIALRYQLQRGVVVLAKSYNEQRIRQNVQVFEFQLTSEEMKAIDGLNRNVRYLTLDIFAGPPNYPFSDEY

[4] = target: T4, FLAG-tagged AKR1C1 fragment containing the first 160 residues (human) (UniProt Q04828); assay: as above
T4 sequence: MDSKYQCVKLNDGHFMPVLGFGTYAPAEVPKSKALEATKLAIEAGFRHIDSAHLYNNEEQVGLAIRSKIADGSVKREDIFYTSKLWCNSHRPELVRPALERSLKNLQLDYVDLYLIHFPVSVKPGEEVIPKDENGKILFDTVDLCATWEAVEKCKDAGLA

binding [1]: binds
B1: wildtype FLAG-tagged AKR1C1 (enzyme, UniProt Q04828 1-323)
chain: MDSKYQCVKLNDGHFMPVLGFGTYAPAEVPKSKALEATKLAIEAGFRHIDSAHLYNNEEQVGLAIRSKIADGSVKREDIFYTSKLWCNSHRPELVRPALERSLKNLQLDYVDLYLIHFPVSVKPGEEVIPKDENGKILFDTVDLCATWEAVEKCKDAGLAKSIGVSNFNRRQLEMILNKPGLKYKPVCNQVECHPYFNQRKLLDFCKSKDIVLVAYSALGSHREEPWVDPNSPVLLEDPVLCALAKKHKRTPALIALRYQLQRGVVVLAKSYNEQRIRQNVQVFEFQLTSEEMKAIDGLNRNVRYLTLDIFAGPPNYPFSDEY

binding [2]: binds
B2: cytochrome P450 1B1 (CYP1B1) (enzyme, UniProt Q16678 1-543)
chain: MGTSLSPNDPWPLNPLSIQQTTLLLLLSVLATVHVGQRLLRQRRRQLRSAPPGPFAWPLIGNAAAVGQAAHLSFARLARRYGDVFQIRLGSCPIVVLNGERAIHQALVQQGSAFADRPAFASFRVVSGGRSMAFGHYSEHWKVQRRAAHSMMRNFFTRQPRSRQVLEGHVLSEARELVALLVRGSADGAFLDPRPLTVVAVANVMSAVCFGCRYSHDDPEFRELLSHNEEFGRTVGAGSLVDVMPWLQYFPNPVRTVFREFEQLNRNFSNFILDKFLRHCESLRPGAAPRDMMDAFILSAEKKAAGDSHGGGARLDLENVPATITDIFGASQDTLSTALQWLLLLFTRYPDVQTRVQAELDQVVGRDRLPCMGDQPNLPYVLAFLYEAMRFSSFVPVTIPHATTANTSVLGYHIPKDTVVFVNQWSVNHDPLKWPNPENFDPARFLDKDGLINKDLTSRVMIFSVGKRRCIGEELSKMQLFLFISILAHQCDFRANPNEPAKMNFSYGLTIKPKSFKVNVTLRESMELLDSAVQNLQAKETCQ

binding [3]: binds | binding [4]: binds
B3: wildtype HA-tagged CYP1B1 (enzyme, UniProt Q16678 1-543)
chain: MGTSLSPNDPWPLNPLSIQQTTLLLLLSVLATVHVGQRLLRQRRRQLRSAPPGPFAWPLIGNAAAVGQAAHLSFARLARRYGDVFQIRLGSCPIVVLNGERAIHQALVQQGSAFADRPAFASFRVVSGGRSMAFGHYSEHWKVQRRAAHSMMRNFFTRQPRSRQVLEGHVLSEARELVALLVRGSADGAFLDPRPLTVVAVANVMSAVCFGCRYSHDDPEFRELLSHNEEFGRTVGAGSLVDVMPWLQYFPNPVRTVFREFEQLNRNFSNFILDKFLRHCESLRPGAAPRDMMDAFILSAEKKAAGDSHGGGARLDLENVPATITDIFGASQDTLSTALQWLLLLFTRYPDVQTRVQAELDQVVGRDRLPCMGDQPNLPYVLAFLYEAMRFSSFVPVTIPHATTANTSVLGYHIPKDTVVFVNQWSVNHDPLKWPNPENFDPARFLDKDGLINKDLTSRVMIFSVGKRRCIGEELSKMQLFLFISILAHQCDFRANPNEPAKMNFSYGLTIKPKSFKVNVTLRESMELLDSAVQNLQAKETCQ
